The values that follow come from article PMC4510971.

By UniProt entry, the sequences of proteins in these tests, tags left out. Where a name states a change or a piece, a line headed by the entry shows the natural chain unless it says otherwise. Chains listed by the source or under a name are the forms on record and can include a tag or linker. Residues count along the entry.
UniProt P54198: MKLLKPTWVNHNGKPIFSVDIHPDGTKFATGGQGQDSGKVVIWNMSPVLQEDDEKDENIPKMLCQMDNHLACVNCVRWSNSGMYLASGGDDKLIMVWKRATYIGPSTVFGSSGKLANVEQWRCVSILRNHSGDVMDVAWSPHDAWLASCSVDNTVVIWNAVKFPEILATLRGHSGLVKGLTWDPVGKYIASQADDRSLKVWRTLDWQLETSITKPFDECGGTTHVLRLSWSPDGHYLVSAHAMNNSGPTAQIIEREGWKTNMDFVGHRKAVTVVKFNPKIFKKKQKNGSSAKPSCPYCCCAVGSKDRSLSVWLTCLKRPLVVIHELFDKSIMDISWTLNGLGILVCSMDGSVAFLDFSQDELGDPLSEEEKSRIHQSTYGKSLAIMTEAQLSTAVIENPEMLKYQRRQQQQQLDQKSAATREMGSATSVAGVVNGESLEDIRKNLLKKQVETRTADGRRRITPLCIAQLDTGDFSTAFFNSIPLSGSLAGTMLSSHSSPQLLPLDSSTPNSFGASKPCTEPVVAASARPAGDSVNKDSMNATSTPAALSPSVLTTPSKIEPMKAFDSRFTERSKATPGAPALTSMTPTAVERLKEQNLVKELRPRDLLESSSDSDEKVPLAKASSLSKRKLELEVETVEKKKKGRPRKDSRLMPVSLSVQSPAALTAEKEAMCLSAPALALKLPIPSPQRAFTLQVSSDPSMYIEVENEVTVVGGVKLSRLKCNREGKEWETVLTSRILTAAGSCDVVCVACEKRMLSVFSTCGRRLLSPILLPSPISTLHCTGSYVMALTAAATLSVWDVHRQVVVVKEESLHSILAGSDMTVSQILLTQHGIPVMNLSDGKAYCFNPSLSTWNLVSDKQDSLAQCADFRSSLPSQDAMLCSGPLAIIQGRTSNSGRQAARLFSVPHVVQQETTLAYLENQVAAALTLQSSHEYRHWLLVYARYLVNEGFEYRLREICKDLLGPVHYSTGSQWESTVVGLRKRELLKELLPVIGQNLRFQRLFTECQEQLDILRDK
UniProt Q9NPG3: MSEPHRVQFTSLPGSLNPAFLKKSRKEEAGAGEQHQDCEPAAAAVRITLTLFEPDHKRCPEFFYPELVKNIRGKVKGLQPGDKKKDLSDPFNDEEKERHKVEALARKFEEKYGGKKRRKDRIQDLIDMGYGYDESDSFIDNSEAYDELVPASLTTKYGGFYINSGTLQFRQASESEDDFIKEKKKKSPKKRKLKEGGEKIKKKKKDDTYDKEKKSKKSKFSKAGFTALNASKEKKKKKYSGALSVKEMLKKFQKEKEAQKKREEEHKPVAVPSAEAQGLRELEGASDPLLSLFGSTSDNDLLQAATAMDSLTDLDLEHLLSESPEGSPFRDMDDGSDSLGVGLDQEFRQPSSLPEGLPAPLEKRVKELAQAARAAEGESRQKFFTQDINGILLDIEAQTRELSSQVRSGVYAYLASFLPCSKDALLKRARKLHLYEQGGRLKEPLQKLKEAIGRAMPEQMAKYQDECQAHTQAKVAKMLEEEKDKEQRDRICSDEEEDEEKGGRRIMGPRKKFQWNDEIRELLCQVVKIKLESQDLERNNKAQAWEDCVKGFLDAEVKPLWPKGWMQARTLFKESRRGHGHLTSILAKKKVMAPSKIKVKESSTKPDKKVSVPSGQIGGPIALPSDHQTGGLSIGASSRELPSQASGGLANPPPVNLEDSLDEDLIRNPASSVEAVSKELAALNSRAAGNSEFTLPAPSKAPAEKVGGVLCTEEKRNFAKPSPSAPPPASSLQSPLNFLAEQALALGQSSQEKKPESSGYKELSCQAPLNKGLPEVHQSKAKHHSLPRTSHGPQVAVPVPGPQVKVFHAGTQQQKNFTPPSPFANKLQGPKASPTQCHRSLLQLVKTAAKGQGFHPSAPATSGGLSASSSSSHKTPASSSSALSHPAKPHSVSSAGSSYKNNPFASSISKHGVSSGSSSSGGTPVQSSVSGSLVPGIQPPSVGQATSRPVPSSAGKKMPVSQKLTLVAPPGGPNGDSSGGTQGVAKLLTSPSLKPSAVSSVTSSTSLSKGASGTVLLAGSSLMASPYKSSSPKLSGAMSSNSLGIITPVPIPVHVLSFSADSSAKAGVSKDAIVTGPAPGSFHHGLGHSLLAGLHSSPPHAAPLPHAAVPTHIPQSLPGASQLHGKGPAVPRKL
GST-UBN1(41–175): residues 41-175 of Q9NPG3
UBN1(FL) FID138-140AAA (Q9NPG3, form named): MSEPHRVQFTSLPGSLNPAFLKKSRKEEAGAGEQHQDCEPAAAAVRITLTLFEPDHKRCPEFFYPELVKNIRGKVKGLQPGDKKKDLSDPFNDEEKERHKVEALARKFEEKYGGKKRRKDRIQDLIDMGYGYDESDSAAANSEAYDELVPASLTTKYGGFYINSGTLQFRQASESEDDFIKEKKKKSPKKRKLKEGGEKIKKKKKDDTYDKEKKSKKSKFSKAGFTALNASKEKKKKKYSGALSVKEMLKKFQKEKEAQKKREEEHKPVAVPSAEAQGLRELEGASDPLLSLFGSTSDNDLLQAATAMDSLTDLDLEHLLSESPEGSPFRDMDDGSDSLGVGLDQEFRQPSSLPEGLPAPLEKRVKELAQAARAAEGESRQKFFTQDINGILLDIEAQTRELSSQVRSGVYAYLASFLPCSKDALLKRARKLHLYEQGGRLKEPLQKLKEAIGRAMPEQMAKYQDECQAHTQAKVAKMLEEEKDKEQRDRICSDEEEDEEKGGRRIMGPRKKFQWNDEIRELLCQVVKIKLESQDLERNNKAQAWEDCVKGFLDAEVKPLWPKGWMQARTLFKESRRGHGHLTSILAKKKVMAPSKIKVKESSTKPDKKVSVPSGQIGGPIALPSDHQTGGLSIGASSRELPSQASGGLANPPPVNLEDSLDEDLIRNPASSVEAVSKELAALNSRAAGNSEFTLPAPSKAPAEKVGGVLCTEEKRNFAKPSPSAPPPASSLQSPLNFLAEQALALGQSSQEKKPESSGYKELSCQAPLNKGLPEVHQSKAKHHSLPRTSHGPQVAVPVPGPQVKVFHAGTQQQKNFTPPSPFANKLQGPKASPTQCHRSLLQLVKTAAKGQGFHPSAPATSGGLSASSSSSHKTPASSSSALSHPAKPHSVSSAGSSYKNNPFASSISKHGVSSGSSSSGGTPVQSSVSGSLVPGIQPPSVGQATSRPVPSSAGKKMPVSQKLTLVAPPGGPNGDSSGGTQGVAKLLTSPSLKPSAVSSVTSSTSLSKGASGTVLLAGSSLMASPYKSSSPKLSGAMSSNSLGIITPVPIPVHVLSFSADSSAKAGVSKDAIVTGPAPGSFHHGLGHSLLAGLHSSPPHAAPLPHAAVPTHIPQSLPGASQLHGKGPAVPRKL

Assay [1] deals with HIRA-FLAG(FL) (human) (UniProt P54198). Briefly: co-purification on ANTI-FLAG M2 affinity gel; co-expressed in Sf9; lysate in 20 mM Tris pH 8.0, 500 mM NaCl bound to the gel through HIRA-FLAG, washed with 60 column volumes.
Assay [2] deals with GST-UBN1(41–175) (human) (UniProt Q9NPG3). Briefly: co-purification on glutathione agarose; co-expressed in Sf9; lysate in PBS bound to glutathione agarose through GST-UBN1(41–175), eluted, ion exchange.

No constants are given. Whether binding was seen depends on the method and setting. Some binding calls cover weakened binding; strength is not graded here.

As for UBN1(FL) (from UniProt Q9NPG3 1-1134), the binding entry in assay [1] is given as “binds”. Same read-out and setting: with “UBN1(FL) FID138-140AAA (from UniProt Q9NPG3 1-1134)” the entry was “binds”. “HIRA(1–405) (from UniProt P54198 1-405) (domain or fragment)”: the binding entry in assay [2] is “binds”.
